# From ChEMBL document CHEMBL4033791, “Creation of a Novel Class of Potent and Selective MutT Homologue 1 (MTH1) Inhibitors Using Fragment-Based Screening and Structure-Based Drug Design” (J Med Chem, 2018)
# Experiment: Solubility of the compound in buffer
smiles,measurement,value
O=C(NC1COC1)c1cc2c(N3CCCC3c3cccnc3)ccnc2[nH]1 (stereo unspecified),solubility,250 µM
